Counter-ions that a name gives are not always drawn. ± gives the standard deviation of the averaged measurements. Some of the results follow. The data scatter; read single values as rough.
System: Salmonella enterica serovar Typhimurium ST313 D23580
Experiment: normalized bacterial growth (OD600 20 h minus 0 h, interquartile-mean normalized) (fraction of plate interquartile mean); higher = more bacterial growth (less inhibition)
Settings: LPM (pH 5.8, low phosphate, low Mg2+), concentration: 10 µM, temperature: 37 °C

| Compound | normalized bacterial growth |
| --- | --- |
| CC[N+]1(C)C2CCC1CC(OC(=O)C1CCC(C(=O)OC3CC4CCC(C3)[N+]4(C)CC)(c3ccccc3)c3ccccc31)C2 (stereo not drawn) [beta- Belladonnine dichloroethylate] | 0.915 |
| CC(/C=C/c1cccc(Oc2ccc(F)cc2)c1)N(O)C(N)=O (configuration not stated) | 0.837 |
| NC(=O)C(c1ccccc1)(c1ccccc1)[C@@H]1CCN(CCc2ccc3c(c2)CCO3)C1 | 1.16 |
| CCCNCC(O)COc1ccccc1C(=O)CCc1ccccc1 (configuration not stated) [Propafenone hydrochloride] | 0.924 |
| CCCCCCCCCCCCCCCCCC(=O)OC(CC(=O)O)C[N+](C)(C)C (racemic) [DL-Stearoylcarnitine chloride] | 1.1 |
| COc1cc(/C=C(\C#N)C(=O)Nc2nnc(C(F)(F)F)s2)ccc1OCc1ccc(C(F)(F)F)cc1C(F)(F)F | 1.12 |
| O=[N+]([O-])c1cccc2cn[nH]c12 [7-Nitroindazole] | 1.02 |
| COc1ccccc1OCC(O)CN1CCN(CC(=O)Nc2c(C)cccc2C)CC1 (configuration not stated) | 1 |
| COc1ccccc1OCC(O)CN1CCN(CC(=O)Nc2c(C)cccc2C)CC1 (configuration not stated) [Ranolazine dihydrochloride] | 0.982 |
| C[C@H]1C[C@@H]2[C@H]([C@@H](O)C[C@@]3(C)[C@H]2CC[C@]3(O)C(=O)CO)[C@@]2(C)C=CC(=O)C=C12 ["Methylprednisolone, 6-alpha"] | 1.09 |
| C[C@H]1C[C@@H]2[C@H]([C@@H](O)C[C@@]3(C)[C@H]2CC[C@]3(O)C(=O)CO)[C@@]2(C)C=CC(=O)C=C12 | 1.03 |
| CS(=O)(=O)CCCCN=C=S | 0.881 |
| CC(=O)N[C@@H](Cc1c[nH]c2ccccc12)C(N)=O | 1.07 |
| CC(C)NCC(O)c1ccc2ccccc2c1 (configuration not stated) | 1.06 |
| CC(=O)O[C@]1(C(C)=O)CC[C@H]2[C@@H]3C[C@H](C)C4=CC(=O)CC[C@]4(C)[C@H]3CC[C@@]21C | 0.938 |
| O.O.O.O.O.O.O.O.O.O.O.O.O.O.O.O.O=S(=O)([O][Al])OC[C@H]1O[C@@](COS(=O)(=O)[O][Al])(O[C@H]2O[C@H](COS(=O)(=O)[O][Al])[C@@H](OS(=O)(=O)[O][Al])[C@H](OS(=O)(=O)[O][Al])[C@H]2OS(=O)(=O)[O][Al])[C@@H](OS(=O)(=O)[O][Al])[C@@H]1OS(=O)(=O)[O][Al] | 0.976 |
| CC(=O)Oc1ccc2c(c1)CCC1C2CC[C@]2(C)C(=O)CCC12 (some centres not stated) | 0.922 |
| Nc1nc2c(nc(Br)n2C2OC3COP(=O)(O)O[C@@H]3C2O)c(=O)[nH]1 (some centres not stated) [8-Bromo-cGMP sodium] | 1.01 |
| CN(C)c1nc(N(C)C)nc(N(C)C)n1 [Altretamine] | 0.933 |
| Nc1nc2ccc(Cl)cc2c2nc(-c3ccco3)nn12 | 0.67 |
| CCC(C)N(C)C(=O)c1cc2ccccc2c(-c2ccccc2Cl)n1 (configuration not stated) | 0.897 |
| COc1cc2c(cc1C(F)(F)F)N(C(=O)Nc1cc(F)cc(-c3cccnc3)c1)CC2 | 0.599 |
| Cc1c(N(C)CS(=O)(=O)O)c(=O)n(-c2ccccc2)n1C | 1.05 |
| CN(C)[C@@H]1C(O)=C(C(=O)NCN2CCCC2)C(=O)[C@@]2(O)C(O)=C3C(=O)c4c(O)cccc4[C@@](C)(O)[C@H]3C[C@@H]12 [Rolitetracycline] | 0.538 |
| CN(C)[C@@H]1C(O)=C(C(=O)NCN2CCCC2)C(=O)[C@@]2(O)C(O)=C3C(=O)c4c(O)cccc4[C@@](C)(O)[C@H]3C[C@@H]12 | 0.638 |
| CC(NCCC(c1ccccc1)c1ccccc1)c1ccccc1 (configuration not stated) | 0.567 |

Another view of some results above.
Compound | normalized bacterial growth
CCCCCCCCCCCCCCCCCC(=O)OC(CC(=O)O)C[N+](C)(C)C (racemic) [DL-Stearoylcarnitine chloride] | 1.1
COc1cc(/C=C(\C#N)C(=O)Nc2nnc(C(F)(F)F)s2)ccc1OCc1ccc(C(F)(F)F)cc1C(F)(F)F | 1.12
O=[N+]([O-])c1cccc2cn[nH]c12 [7-Nitroindazole] | 1.02

Going on with the list.

| Compound | normalized bacterial growth |
| --- | --- |
| COc1cc2c3cc1Oc1c(OC)c(OC)cc4c1[C@@H](Cc1ccc(O)c(c1)Oc1ccc(cc1)C[C@@H]3N(C)CC2)N(C)CC4 | 0.974 |
| CCN(CC)CCc1nc(-c2ccccc2)no1 [Oxalamine citrate salt] | 1.21 |
| CC(C)NCC(O)c1ccc(O)c(O)c1 (single isomer, unassigned; (+)) [(+)-Isoproterenol (+)-bitartrate salt] | 0.852 |
| CNCC(O)c1ccc(OC(=O)C(C)(C)C)c(OC(=O)C(C)(C)C)c1 (configuration not stated) [Dipivefrin hydrochloride] | 1 |
| C/C=C(/C)C(=O)O[C@H]1CC(C)=CC(=O)[C@@]2(C)CC[C@@](O)(C(C)C)[C@H]12 | 1.1 |
| O=c1c(O[C@@H]2O[C@H](CO)[C@@H](O)[C@H](O)[C@H]2O)c(-c2ccc(O)cc2)oc2cc(O)cc(O)c12 | 0.894 |
| Nc1ncnc2c1c(-c1ccc(Oc3ccccc3)cc1)cn2C1CCCC1 | 1.14 |
| CCc1cn([C@H]2C[C@H](O)[C@@H](CO)O2)c(=O)[nH]c1=O | 0.74 |
| C[C@@H]1O[C@@H](O[C@H]2[C@H](Oc3cc(O)c4c(=O)cc(-c5ccc(O)cc5)oc4c3)O[C@H](CO)[C@@H](O)[C@@H]2O)[C@H](O)[C@H](O)[C@H]1O | 1.05 ± 0.086 |
| CC(=O)O[C@H]1CC[C@@]2(C)[C@@H](CC[C@@H]3[C@@H]2CC(=O)[C@]2(C)[C@@H]4[C@H](C[C@@H]32)O[C@]2(CC[C@@H](C)CO2)[C@H]4C)C1 | 1.06 |
| O=c1oc2ccccc2c(O)c1Cc1c(O)c2ccccc2oc1=O | 1.06 |
| Cn1ccc2cc(NC(=O)Nc3cccnc3)ccc21 | 0.713 |
| COC(=O)/C=C/C(C)=C\C=C\C(C)=C\C=C\C=C(C)\C=C\C=C(C)\C=C\C(=O)O | 0.875 |
| CC(=O)[C@]1(O)Cc2c(O)c3c(c(O)c2[C@@H](O[C@H]2C[C@H](N)[C@H](O)[C@H](C)O2)C1)C(=O)c1ccccc1C3=O [Idarubicin] | 1.26 |
| CN1CCN(CCCN2c3ccccc3Sc3ccc(Cl)cc32)CC1 | 0.7 |
| CN1CCN(CCCN2c3ccccc3Sc3ccc(Cl)cc32)CC1 [Prochlorperazine dimaleate] | 1.36 |
| O=C1c2ccccc2C(=O)c2c1ccc(O)c2O | 0.869 |
| CC(=O)Oc1cc(OC(C)=O)c2c(c1)O[C@H](c1ccc(OC(C)=O)c(OC(C)=O)c1)[C@H](OC(C)=O)C2 | 1.12 |
| C[C@H](CCC(=O)O)[C@H]1CC[C@H]2[C@@H]3[C@H](O)C[C@@H]4C[C@H](O)CC[C@]4(C)[C@H]3CC[C@]12C [Chenodiol] | 0.767 |
| C[C@H](CCC(=O)O)[C@H]1CC[C@H]2[C@@H]3[C@H](O)C[C@@H]4C[C@H](O)CC[C@]4(C)[C@H]3CC[C@]12C | 1.01 |
| COc1ccc([C@@H]2CC(=O)c3c(O)cc(O[C@@H]4O[C@H](CO)[C@@H](O)[C@H](O)[C@H]4O[C@@H]4O[C@@H](C)[C@H](O)[C@@H](O)[C@H]4O)cc3O2)cc1O | 1.08 |
| CC(=O)OCC(CCn1cnc2cnc(N)nc21)COC(C)=O | 0.956 |
| NCC(O)CC(=O)O (configuration not stated) | 1.21 |
| COc1c2occc2c(OC)c2c(=O)cc(C)oc12 | 1.13 |
| C1CNCCN1 | 1.11 |
| COc1ccc(CCN(C)CCCC(C#N)(c2cc(OC)c(OC)c(OC)c2)C(C)C)cc1OC (configuration not stated) [()-Methoxyverapamil hydrochloride] | 0.534 |

| Compound | normalized bacterial growth |
| --- | --- |
| Nc1cc(C(Cl)=C(Cl)Cl)c(S(N)(=O)=O)cc1S(N)(=O)=O | 0.963 |
| CC[C@H](C)C(=O)O[C@H]1CCC=C2C=C[C@H](C)[C@H](CC[C@@H]3C[C@@H](O)CC(=O)O3)[C@H]21 | 0.772 |
| O=C1c2ccccc2-n2c1nc1ccccc1c2=O | 1.01 |
| O=C(NCO)c1cccnc1 | 1.01 |
| CO[C@@H]1[C@@H](OC(N)=O)[C@@H](O)[C@H](Oc2ccc3c(O)c(NC(=O)c4ccc(O)c(CC=C(C)C)c4)c(=O)oc3c2C)OC1(C)C | 0.864 |
| CO[C@@H]1[C@@H](OC(N)=O)[C@@H](O)[C@H](Oc2ccc3c(O)c(NC(=O)c4ccc(O)c(CC=C(C)C)c4)c(=O)oc3c2C)OC1(C)C [Novobiocin sodium salt] | 1.02 |
| CC(=O)Oc1cccc(O)c1 | 1.03 |
| C/C1=C\CCC(=O)C2CC(C)(C)C2CC1 (configuration not stated) | 1.03 |
| CCN1CCN(C(=O)N[C@@H](C(=O)N[C@@H]2C(=O)N3[C@@H]2SC(C)(C)[C@@H]3C(=O)O)c2ccccc2)C(=O)C1=O [Piperacillin sodium salt] | 1.04 |
| CCN1CCN(C(=O)N[C@@H](C(=O)N[C@@H]2C(=O)N3[C@@H]2SC(C)(C)[C@@H]3C(=O)O)c2ccccc2)C(=O)C1=O | 1.25 |
| CC(=O)N[C@@H](CCC(=O)O)C(=O)O | 0.715 |
| CN1CCCC(n2nc(Cc3ccc(Cl)cc3)c3ccccc3c2=O)CC1 (configuration not stated) | 1.26 |
| O=C(CNC(=O)c1ccc(Cl)cc1)NO | 1.13 |
| COc1cc(OC)c(C=C2C(=O)Nc3ccccc32)c(OC)c1 | 0.763 |
| CN1CCCCC1CCN1c2ccccc2Sc2ccc([S+](C)[O-])cc21 (configuration not stated) [Mesoridazine besylate] | 0.737 |
| NC(=O)N/N=C/c1ccc([N+](=O)[O-])o1 | 1.4 |
| NC(C(=O)O)C(O)C(=O)O (stereo not drawn) ["d,l-threo-3-HYDROXYASPARTIC ACID"] | 1.24 |
| Cc1ncc(CSSCc2cnc(C)c(O)c2CO)c(CO)c1O | 0.926 |
| COC(=O)C1=CO[C@@H](O[C@@H]2O[C@H](CO)[C@@H](O)[C@H](O)[C@H]2O)[C@@H]2[C@@H](C)[C@@H](O)C[C@H]12 | 1.04 |
| O=c1oc(Cl)c(Cl)c2ccccc12 ["3,4-Dichloroisocoumarin"] | 0.967 |
| N[C@H]1C(O)O[C@H](CO)[C@@H](O)[C@@H]1O (some centres not stated) | 1.29 |
| C=C1C[C@H]2[C@@H]3C=C(C)C4=CC(=O)CC[C@]4(C)[C@H]3CC[C@]2(C)[C@@]1(OC(C)=O)C(C)=O | 0.926 |
| OC[C@H]1O[C@@H](Oc2ccc(O)cc2)[C@H](O)[C@@H](O)[C@@H]1O | 1.15 |
| Nc1ccc(S(=O)(=O)c2ccc(N)cc2)cc1 | 0.797 |
| O=C(O)[C@H]1C[C@H](C(=O)O)N1 ["trans-Azetidine-2,4-dicarboxylic acid"] | 1.09 |
